The record followed here is patent publication US20080311232A1, “Cooling Compounds” (Givaudan, SA, priority 2007, published 2008).

The test system of this data set is panelists. Put plainly: Cooling intensity: panelists taste aqueous solutions, compared with menthol at 2 ppm. It is filed as in vivo, human. The conditions noted are these: aqueous solution, Table 1.

As to `CC1(C)[C@H]2CC[C@]1(C)[C@H](OC(=O)CCC(=O)O)C2` [Example 1, 4-oxo-4-(1S,2R,4S)1,7,7-trimethylbicyclo[2.2.1]heptan-2-yloxybutanoic acid], the Odor entry is given as “None”.
For `CC1(C)[C@@H]2CC[C@@]1(C)[C@H](OC(=O)CCC(=O)O)C2` [Example 4, 4-oxo-4-((1R,2R,4R)-1,7,7-trimethylbicyclo[2.2.1]heptan-2-yloxy)butanoic acid], the Odor result is “None”.
With `CCOC(=O)CC(=O)O[C@@H]1C2(C)CCC(C2)C1(C)C` (stereo partly drawn) [Example 6, Ethyl (2R)-1,3,3-trimethylbicyclo[2.2.1]heptan-2-yl malonate] the entry was “None”.
Regarding `CN(C)C(=O)CCC(=O)O[C@@H]1C2(C)CCC(C2)C1(C)C` (stereo partly drawn) [Example 7, (2R)-1,3,3-trimethylbicyclo[2.2.1]heptan-2-yl 4-(dimethylamino)-4-oxobutanoate], the Odor result is reported as “None”.
For `C[C@@H](N)C(=O)OC1C2(C)CCC(C2)C1(C)C` (stereo partly drawn) [Example 8, D-alanine fenchyl ester], the Odor entry is “None”.
For `CC1(C)[C@H]2CC[C@](C)(C2)[C@H]1OC(=O)CCC(=O)O` [Example 9, 4-oxo-4-((1R,2R,4S)-1,3,3-trimethylbicyclo[2.2.1]heptan-2-yloxy)butanoic acid] the value was “None”.
Regarding `CCNC(=O)C1CC(C)CCC1C(C)C` (centres unmarked) [WS-3, N-ethyl p-menthanecarboxamide, reference compound], the Odor entry is reported as “None”.
Regarding `CC(C)[C@@H]1CC[C@@H](C)C[C@H]1O` [l-Menthol, reference compound], the Odor result was “Minty”.
